EP0349681A1, “Methods for treating hydrocarbon recovery operations and industrial waters” (PETROLITE CORPORATION, priority 1988, dated 1990)

Assay: bottle test of reverse demulsifiers
Conditions: 30 ppm chemical, 100 shakes; for Break Time: 100 ml oil field water

SMILES	Break Time	Comments (cleanness of the separated water)
S=C(S)NCCCCCCN(CCCCCCNC(=S)S)C(=S)S [Example 6]	30 s	Sparkling clear water
CCCCCCCCN(CCCNC(=S)S)C(=S)S [Example 8]	30 s	Sparkling clear water
